Measurements reported in paper PMC3098264, “Crystal Structure of the PAC1R Extracellular Domain Unifies a Consensus Fold for Hormone Recognition by Class B G-Protein Coupled Receptors” (PLoS ONE, 2011).
Results are given in words; binding and its absence hold for the method and conditions named.

Amino acid sequences for entries named in this document (tags omitted). A change or cut given only in a name is not applied to a line headed by its entry. Chains listed by the source or under a name are the forms on record and can include a tag or linker.
MBP-PAC1R (25–140)-His6 (P41586-3, form named): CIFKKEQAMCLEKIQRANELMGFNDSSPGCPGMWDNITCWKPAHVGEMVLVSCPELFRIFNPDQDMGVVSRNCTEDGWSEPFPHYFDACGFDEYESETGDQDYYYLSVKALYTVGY

Biological target: MBP-PAC1R (25–140)-His6 (human) (UniProt P41586)
Assay: SEC; S200 column in 10 mM Tris pH 7.5, 50 mM NaCl, 1 mM maltose, 1 mM EDTA; last step of the purification after disulphide shuffling; both purified

**Q.** With “MBP-PAC1R (25–140)-His6 (from UniProt P41586-3 25-140) (domain or fragment)” as the substance, how does the binding read?
**A.** no binding
